Experimental data taken from article PMC6588558.
Read-outs that look alike come from different tables or passages of the source. No constants are given. Whether binding was seen depends on the method and setting. Binding seen in cells or lysates may run through a third protein. Some entries that bind do so weakly or less than the wild type.

Sequences of proteins named here, by UniProt entry; tags and fusion partners are left off. Residues count along the entry.
UniProt P60811, residues 23-351: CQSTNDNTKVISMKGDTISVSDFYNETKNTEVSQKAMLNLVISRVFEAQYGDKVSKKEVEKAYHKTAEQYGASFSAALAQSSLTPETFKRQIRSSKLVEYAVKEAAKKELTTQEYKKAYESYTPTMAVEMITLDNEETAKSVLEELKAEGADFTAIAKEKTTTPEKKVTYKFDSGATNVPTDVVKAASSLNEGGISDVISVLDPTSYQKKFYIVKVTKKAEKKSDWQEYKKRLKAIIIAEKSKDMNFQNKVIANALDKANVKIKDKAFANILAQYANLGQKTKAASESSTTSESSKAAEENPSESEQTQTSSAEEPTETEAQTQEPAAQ
UniProt P02751, residues 32-2477: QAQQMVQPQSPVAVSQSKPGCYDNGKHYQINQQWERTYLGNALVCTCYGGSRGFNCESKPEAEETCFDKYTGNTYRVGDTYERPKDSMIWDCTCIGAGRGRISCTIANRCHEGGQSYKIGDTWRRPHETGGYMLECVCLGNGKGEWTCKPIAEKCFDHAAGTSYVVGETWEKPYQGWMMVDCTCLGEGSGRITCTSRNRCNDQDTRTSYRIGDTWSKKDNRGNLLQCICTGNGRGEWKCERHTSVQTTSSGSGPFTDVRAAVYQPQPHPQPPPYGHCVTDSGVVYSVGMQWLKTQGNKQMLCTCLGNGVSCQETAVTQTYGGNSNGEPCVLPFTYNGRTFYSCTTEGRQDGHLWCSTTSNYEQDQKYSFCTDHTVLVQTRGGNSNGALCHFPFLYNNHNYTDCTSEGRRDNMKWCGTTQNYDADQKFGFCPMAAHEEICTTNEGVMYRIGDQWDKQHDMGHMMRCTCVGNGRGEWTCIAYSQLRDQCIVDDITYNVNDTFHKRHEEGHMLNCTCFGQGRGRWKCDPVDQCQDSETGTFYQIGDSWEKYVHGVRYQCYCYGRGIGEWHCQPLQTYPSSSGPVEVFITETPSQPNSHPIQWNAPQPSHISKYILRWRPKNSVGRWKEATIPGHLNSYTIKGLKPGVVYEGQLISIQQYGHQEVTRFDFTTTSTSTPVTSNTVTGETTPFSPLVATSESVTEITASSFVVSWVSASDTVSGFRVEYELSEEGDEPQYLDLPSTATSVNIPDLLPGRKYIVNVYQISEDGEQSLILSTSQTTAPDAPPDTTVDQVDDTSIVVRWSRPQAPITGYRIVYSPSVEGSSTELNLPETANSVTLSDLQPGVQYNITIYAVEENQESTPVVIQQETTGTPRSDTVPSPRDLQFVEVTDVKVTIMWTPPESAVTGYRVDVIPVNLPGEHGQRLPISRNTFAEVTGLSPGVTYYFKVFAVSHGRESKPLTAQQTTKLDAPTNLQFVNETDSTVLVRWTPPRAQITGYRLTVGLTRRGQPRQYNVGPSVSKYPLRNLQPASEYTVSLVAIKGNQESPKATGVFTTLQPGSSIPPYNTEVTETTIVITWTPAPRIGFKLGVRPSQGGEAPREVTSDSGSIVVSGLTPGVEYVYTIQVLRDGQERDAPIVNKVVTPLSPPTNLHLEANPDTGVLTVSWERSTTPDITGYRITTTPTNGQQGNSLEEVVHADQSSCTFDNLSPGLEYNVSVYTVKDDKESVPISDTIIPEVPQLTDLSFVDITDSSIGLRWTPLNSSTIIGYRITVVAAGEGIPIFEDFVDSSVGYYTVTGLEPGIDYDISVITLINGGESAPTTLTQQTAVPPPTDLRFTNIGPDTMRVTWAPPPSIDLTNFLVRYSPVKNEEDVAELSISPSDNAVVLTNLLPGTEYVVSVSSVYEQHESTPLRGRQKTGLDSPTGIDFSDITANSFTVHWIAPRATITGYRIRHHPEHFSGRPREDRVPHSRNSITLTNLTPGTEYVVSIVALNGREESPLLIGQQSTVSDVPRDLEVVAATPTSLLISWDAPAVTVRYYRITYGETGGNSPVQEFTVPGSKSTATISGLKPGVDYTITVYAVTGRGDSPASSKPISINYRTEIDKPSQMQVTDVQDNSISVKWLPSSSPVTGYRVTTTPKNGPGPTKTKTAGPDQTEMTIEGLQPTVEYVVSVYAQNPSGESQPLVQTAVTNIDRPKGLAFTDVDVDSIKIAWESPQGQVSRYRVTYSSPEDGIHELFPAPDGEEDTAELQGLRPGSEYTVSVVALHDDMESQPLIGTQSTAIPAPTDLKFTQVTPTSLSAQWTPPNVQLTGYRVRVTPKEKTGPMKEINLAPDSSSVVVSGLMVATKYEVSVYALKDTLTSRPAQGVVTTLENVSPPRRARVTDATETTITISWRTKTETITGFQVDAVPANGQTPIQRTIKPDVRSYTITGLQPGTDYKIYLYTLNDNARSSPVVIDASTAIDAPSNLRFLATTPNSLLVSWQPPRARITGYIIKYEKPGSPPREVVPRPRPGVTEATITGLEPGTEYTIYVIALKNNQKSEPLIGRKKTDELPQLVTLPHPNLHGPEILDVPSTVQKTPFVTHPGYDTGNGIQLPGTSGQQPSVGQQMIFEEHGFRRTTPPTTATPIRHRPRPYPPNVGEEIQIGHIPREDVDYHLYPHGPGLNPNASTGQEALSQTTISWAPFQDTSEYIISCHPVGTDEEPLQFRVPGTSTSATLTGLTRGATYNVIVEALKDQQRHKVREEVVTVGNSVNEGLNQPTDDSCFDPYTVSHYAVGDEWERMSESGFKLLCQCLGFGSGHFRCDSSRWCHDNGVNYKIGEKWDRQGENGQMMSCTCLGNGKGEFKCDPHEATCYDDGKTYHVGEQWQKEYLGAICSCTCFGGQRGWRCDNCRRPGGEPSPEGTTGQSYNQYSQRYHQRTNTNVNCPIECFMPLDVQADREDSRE
UniProt P02679, residues 27-453: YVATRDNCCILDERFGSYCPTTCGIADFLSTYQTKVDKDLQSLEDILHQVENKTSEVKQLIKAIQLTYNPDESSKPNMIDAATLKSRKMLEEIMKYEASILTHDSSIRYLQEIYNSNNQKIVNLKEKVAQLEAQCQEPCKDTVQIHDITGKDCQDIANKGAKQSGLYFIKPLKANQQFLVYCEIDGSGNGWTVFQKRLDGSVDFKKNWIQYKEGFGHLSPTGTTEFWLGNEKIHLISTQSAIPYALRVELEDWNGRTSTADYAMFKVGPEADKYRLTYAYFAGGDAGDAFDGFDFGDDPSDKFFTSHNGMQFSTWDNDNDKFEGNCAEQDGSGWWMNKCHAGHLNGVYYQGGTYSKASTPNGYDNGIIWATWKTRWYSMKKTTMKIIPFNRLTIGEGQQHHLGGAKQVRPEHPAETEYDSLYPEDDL
UniProt P02649, residues 19-317: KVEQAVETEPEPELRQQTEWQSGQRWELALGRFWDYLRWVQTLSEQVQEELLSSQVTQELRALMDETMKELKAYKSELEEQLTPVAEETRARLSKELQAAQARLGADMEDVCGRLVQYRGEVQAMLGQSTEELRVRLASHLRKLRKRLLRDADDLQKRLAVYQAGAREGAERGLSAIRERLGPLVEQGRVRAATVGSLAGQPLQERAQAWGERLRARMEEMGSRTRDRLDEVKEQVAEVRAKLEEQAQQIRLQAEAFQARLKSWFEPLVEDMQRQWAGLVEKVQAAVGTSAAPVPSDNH
UniProt P02671, residues 36-866: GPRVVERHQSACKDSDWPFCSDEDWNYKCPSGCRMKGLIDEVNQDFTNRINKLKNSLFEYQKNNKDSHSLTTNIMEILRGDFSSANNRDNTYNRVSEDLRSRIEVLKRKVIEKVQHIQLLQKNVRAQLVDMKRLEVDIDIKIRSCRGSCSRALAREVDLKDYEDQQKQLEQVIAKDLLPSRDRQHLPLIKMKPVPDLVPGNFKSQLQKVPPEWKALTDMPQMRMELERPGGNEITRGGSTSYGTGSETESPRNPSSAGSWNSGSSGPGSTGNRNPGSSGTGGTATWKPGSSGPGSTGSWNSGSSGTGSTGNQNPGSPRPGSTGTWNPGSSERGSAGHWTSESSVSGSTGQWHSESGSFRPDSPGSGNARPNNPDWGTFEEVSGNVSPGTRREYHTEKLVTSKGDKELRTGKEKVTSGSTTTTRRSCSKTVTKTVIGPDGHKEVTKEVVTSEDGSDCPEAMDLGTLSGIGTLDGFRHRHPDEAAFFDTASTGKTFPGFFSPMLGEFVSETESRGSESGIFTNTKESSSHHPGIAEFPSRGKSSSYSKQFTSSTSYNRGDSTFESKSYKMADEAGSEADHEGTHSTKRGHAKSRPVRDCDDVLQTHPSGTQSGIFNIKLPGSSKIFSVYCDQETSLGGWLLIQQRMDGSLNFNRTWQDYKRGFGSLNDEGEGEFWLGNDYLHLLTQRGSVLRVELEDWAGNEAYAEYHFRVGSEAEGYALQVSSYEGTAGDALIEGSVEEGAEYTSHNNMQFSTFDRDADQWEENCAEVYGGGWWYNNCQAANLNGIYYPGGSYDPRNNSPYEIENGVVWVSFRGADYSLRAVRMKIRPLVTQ

T1: CovR (S. pyogenes (endogenous in strain SF370)) (UniProt O87527)
T1 sequence: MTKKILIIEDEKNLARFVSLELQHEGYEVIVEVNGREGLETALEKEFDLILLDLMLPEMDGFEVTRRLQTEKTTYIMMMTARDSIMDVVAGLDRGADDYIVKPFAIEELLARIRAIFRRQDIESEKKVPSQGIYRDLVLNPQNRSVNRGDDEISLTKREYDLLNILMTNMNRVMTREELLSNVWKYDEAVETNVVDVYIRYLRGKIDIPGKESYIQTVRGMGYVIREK


How the values were obtained:
Experiment in all cases: cross-linking
[1] = target: T1, CovR (S. pyogenes (endogenous in strain SF370))
[2] = target: Foldase protein PrsA1 (S. pyogenes (endogenous in strain SF370)) (UniProt P60811)
[3] = target: T1, CovR (S. pyogenes (endogenous in strain SF370)); remark: listed apart in the source
[4] = target: Foldase protein PrsA1 (S. pyogenes (endogenous in strain SF370)) (UniProt P60811); remark: listed apart in the source

Molecule	binding [1]	also measured
fibronectin (from UniProt P02751 32-2477)	binds	
FGG (from UniProt P02679 27-453)	binds	
APOE (from UniProt P02649 19-317)		binding [2]: binds
fibrinogen chain alpha (from UniProt P02671 36-866)	binds	
CFHR5 (protein, UniProt Q9BXR6 19-569) EGTLCDFPKIHHGFLYDEEDYNPFSQVPTGEVFYYSCEYNFVSPSKSFWTRITCTEEGWSPTPKCLRMCSFPFVKNGHSESSGLIHLEGDTVQIICNTGYSLQNNEKNISCVERGWSTPPICSFTKGECHVPILEANVDAQPKKESYKVGDVLKFSCRKNLIRVGSDSVQCYQFGWSPNFPTCKGQVRSCGPPPQLSNGEVKEIRKEEYGHNEVVEYDCNPNFIINGPKKIQCVDGEWTTLPTCVEQVKTCGYIPELEYGYVQPSVPPYQHGVSVEVNCRNEYAMIGNNMITCINGIWTELPMCVATHQLKRCKIAGVNIKTLLKLSGKEFNHNSRIRYRCSDIFRYRHSVCINGKWNPEVDCTEKREQFCPPPPQIPNAQNMTTTVNYQDGEKVAVLCKENYLLPEAKEIVCKDGRWQSLPRCVESTAYCGPPPSINNGDTTSFPLSVYPPGSTVTYRCQSFYKLQGSVTVTCRNKQWSEPPRCLDPCVVSEENMNKNNIQLKWRNDGKLYAKTGDAVEFQCKFPHKAMISSPPFRAICQEGKFEYPICE		binding [3]: binds
PROS1 (protein, UniProt P07225 42-676) ANSLLEETKQGNLERECIEELCNKEEAREVFENDPETDYFYPKYLVCLRSFQTGLFTAARQSTNAYPDLRSCVNAIPDQCSPLPCNEDGYMSCKDGKASFTCTCKPGWQGEKCEFDINECKDPSNINGGCSQICDNTPGSYHCSCKNGFVMLSNKKDCKDVDECSLKPSICGTAVCKNIPGDFECECPEGYRYNLKSKSCEDIDECSENMCAQLCVNYPGGYTCYCDGKKGFKLAQDQKSCEVVSVCLPLNLDTKYELLYLAEQFAGVVLYLKFRLPEISRFSAEFDFRTYDSEGVILYAESIDHSAWLLIALRGGKIEVQLKNEHTSKITTGGDVINNGLWNMVSVEELEHSISIKIAKEAVMDINKPGPLFKPENGLLETKVYFAGFPRKVESELIKPINPRLDGCIRSWNLMKQGASGIKEIIQEKQNKHCLVTVEKGSYYPGSGIAQFHIDYNNVSSAEGWHVNVTLNIRPSTGTGVMLALVSGNNTVPFAVSLVDSTSEKSQDILLSVENTVIYRIQALSLCSDQQSHLEFRVNRNNLELSTPLKIETISHEDLQRQLAVLDKAMKAKVATYLGGLPDVPFSATPVNAFYNGCMEVNINGVQLDLDEAISKHNDIRAHSCPSVWKKTKNS		binding [4]: binds
